Results from US20130245102.
For some assays here: Construct, isoform or probe ends are uncertain for at least one entry. For some assays here: A negative result means that nothing was seen under these conditions. For some assays here: Weaker means in comparison with the reference protein, sequence or condition of that experiment.

By UniProt entry, the sequences of proteins in these tests, tags left out. Where a name states a change or a piece, a line headed by the entry shows the natural chain unless it says otherwise.
UniProt Q9UPY3: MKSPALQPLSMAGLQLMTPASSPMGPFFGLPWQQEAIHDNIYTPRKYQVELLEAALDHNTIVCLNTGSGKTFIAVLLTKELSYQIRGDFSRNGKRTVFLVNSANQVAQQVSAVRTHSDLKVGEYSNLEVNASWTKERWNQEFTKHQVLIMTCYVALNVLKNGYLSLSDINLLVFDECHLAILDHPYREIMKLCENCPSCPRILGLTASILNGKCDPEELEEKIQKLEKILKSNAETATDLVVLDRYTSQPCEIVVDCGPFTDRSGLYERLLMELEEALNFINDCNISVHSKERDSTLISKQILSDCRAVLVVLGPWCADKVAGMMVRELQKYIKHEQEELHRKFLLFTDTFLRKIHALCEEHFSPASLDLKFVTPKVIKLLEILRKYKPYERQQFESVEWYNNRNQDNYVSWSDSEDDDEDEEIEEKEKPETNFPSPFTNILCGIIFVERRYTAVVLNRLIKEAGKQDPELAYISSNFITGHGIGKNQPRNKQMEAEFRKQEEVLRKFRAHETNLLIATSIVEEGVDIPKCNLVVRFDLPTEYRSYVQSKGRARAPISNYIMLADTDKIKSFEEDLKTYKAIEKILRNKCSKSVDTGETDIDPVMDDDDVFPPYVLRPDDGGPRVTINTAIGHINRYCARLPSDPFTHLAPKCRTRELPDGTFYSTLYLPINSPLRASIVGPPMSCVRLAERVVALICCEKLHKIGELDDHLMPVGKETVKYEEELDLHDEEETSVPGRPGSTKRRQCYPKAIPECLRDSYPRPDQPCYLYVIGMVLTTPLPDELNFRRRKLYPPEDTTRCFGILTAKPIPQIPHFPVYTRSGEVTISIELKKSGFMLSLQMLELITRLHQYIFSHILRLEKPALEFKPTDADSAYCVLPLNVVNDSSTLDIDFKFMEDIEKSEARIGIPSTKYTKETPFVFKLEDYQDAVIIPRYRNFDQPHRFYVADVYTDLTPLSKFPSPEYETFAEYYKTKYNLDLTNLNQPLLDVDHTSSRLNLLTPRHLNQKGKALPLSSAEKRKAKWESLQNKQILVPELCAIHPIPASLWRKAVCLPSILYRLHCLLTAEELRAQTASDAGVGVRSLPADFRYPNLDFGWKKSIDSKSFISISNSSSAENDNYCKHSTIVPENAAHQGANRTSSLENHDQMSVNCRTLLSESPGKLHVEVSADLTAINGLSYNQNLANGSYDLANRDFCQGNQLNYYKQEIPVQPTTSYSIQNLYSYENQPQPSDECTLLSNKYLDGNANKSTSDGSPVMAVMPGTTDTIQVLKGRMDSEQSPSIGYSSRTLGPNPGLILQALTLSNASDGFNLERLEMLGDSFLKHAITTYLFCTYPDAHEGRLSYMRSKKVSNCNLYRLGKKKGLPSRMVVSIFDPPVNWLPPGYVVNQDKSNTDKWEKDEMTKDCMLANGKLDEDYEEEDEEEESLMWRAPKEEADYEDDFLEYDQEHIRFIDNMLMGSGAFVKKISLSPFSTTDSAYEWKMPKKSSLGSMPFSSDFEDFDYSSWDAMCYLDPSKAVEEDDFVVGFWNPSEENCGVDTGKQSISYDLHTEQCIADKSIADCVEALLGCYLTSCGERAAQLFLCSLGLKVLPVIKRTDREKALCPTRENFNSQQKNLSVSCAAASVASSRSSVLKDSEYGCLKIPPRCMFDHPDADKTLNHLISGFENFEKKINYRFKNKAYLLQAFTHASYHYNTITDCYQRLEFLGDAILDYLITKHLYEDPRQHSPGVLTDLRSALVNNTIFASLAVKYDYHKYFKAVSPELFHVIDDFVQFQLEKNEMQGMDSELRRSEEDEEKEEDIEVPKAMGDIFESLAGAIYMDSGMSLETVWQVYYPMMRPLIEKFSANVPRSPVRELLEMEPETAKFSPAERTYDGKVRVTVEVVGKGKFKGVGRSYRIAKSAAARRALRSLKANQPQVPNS
UniProt P00573: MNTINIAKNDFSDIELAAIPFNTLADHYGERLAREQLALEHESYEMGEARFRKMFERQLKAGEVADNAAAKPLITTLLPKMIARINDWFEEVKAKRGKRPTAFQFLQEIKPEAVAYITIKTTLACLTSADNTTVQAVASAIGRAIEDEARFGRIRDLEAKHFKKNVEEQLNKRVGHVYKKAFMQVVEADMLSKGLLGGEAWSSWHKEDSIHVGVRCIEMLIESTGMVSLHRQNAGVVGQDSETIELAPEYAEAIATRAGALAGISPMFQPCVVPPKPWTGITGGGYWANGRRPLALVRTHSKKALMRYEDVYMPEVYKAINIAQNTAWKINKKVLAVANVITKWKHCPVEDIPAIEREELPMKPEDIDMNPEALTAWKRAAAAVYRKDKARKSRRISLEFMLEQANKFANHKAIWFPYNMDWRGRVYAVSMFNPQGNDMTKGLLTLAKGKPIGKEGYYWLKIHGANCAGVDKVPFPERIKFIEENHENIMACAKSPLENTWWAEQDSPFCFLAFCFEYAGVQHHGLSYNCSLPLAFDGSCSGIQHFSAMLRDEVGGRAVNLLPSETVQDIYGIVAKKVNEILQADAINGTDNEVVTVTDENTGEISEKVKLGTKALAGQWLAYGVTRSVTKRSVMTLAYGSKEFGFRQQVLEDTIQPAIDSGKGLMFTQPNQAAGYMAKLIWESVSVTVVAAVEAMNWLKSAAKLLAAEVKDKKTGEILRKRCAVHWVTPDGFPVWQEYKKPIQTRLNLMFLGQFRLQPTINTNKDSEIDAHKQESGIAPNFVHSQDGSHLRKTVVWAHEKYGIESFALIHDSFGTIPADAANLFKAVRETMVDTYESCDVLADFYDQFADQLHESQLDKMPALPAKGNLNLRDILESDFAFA

Key:
[1] = system: RNA polymerase III (Homo sapiens); experiment: activity assay; conditions: protein in an extract
[2] = target: Dicer (Homo sapiens) (UniProt Q9UPY3); experiment: enzyme reaction in vitro; conditions: 21-24 nt products increased in Dicer-overexpressing WCE; protein in a lysate after overexpression
[3] = target: T7 RNA polymerase (Bacteriophage T7) (UniProt P00573); experiment: activity assay; conditions: rolling circle transcription; purified recombinant protein; protein details: New England Biolabs; folded or branched DNA
[4] = no detectable single round transcript, folded or branched DNA
[5] = monomer and oligomeric transcripts in WCE, folded or branched DNA
[6] = monomer transcript in WCE, folded or branched DNA
[7] = single round transcript, folded or branched DNA

Sequence: AACCTCCAAACAAGCTCTCAAGGTCCA [coligo 7SK-KO]
- activity on this sequence [1, 4]: not active

Sequence: AACTGACCAGAGATGCAGCACTGCACCTCTTCCTGAGCTACAGTGCTTCATCTCAGAC [coligo 143]
- activity on this sequence [1, 5]: active

Sequence: AATCCACAAACCATTATGTGCTGCTACTTTGCAGCACAATATGGCCTGCACAA [coligo 15a]
- activity on this sequence [1, 6]: active

Sequence: ACCATCAGTTTTGCATAGATTTGCACAACTACAAAAATCAGAAGGAAAAAGTAGTGCAACTATGCAAAACTGACAG [lin19a]
- activity on this sequence ([1]; linear, not transcribed or only low abortive transcripts, single-stranded DNA): not active

Sequence: ACGAACACAGAAATCTACATTGTATGCCAGGTTCATGAAACCCAGCAGACAATGTAGCTGTTGCCTA [coligo 221]
- activity on this sequence [1, 6]: active

Sequence: ATGATCTAAAAACGGTGCTGTGTATGTCTGCTTTGATCAACCTCTAATAGCTCGTATGATAGTGCAGCCGCTGGTGATCACTGTGCGAATACGGGTTGTAGCAATGTTCGTCTGAGT [coligo RANDC1]
- activity on this sequence ([1]; no transcripts in WCE, folded or branched DNA): not active

Sequence: AUCAAACGCCAUUAUCACACUAAAUAGCUACUGCUAGGCAAUUCCUUAGCAGAGCUGUGGAGUGUGACAAUGGUGUUUGUGUC [122 single round transcript]
- functional effect [2]: active

Sequence: CAGACAGCCCATCGACTGGTGTTGACAGTCAACATCAGTCTGATAAGCTACCCGACA [coligo 21]
- activity on this sequence [1, 5]: active

Sequence: GAAGGAAAAATCAGTTTTGCATAGATTTGCACAACTACATTCTTCTTGTAGTGCAACTATGCAAAACTGCAAACAAAAACTA [coligo 19aDcr3]
- activity on this sequence [1, 7]: active

Sequence: GAAGGAAATAGCAGGCCACCATCAGTTTTGCATAGATTTGCACAACTTCCAGATTCCACCTACTGTGGCTGGAAATGCAACTATGCAAAACTAACAGAGGACTGCAAACAAAAACTA [coligo 19am3]
- activity on this sequence [1, 7]: active

Sequence: GAAGGAAATAGCAGGCCACCATCAGTTTTGCATAGATTTGCACAACTTCCCTATGACCTCGACTACGACTGGAAATGCAACTATGCAAAACTAACAGAGGACTGCAAACAAAAACTA [coligo 19aRL]
- activity on this sequence ([1]; stable in WCE but not transcribed, folded or branched DNA, variant of coligo 19aTAR (19am)): not active

Sequence: GGAAAAATCAGTTTTGCATAGATTTGCACAACTACACACATGTTGTAGTGCAACTATGCAAGACCAAAAATCAGAA [coligo 19adcr1]
- activity on this sequence [1, 7]: active

Sequence: GGGTACCCTCTCTCAGTAGGCAGCTGCAAACATCCGACTGAAAGCCCATCTGTGGCTTCACAGCTTCCAGTCGAGGATGTTTACAGTCGCTCACTGCTCTGGATCCCTGCA [coligo 30a]
- activity on this sequence [1, 4]: not active

Sequence: TAGCAGGCCACCATCAGTTTTGCATAGATTTGCACAACTACATTCTTCTTGTAGTGCAACTATGCAAAACTAACAGAGGACTGCAA [coligo 19a]
- activity on this sequence ([1]; poor substrate, no detectable single round transcript, folded or branched DNA): less active

Sequence: TCGTCTTCGTCCCAGTAAGCTATGTCTCCAGAATGTAGCCA [coligo Luciferase-sense1]
- activity on this sequence [1, 4]: not active

Sequence: TGGACCTTGAGAGCTTGTTTGGAGGTT [coligo 7SK-KOas]
- activity on this sequence [1, 4]: not active

Sequence: TTGCCCTATTTAGTGTGATAATGGCGTTTGATAGTTTAGACACAAACACCATTGTCACACTCCACAGGGAA [coligo 122s]
- activity on this sequence ([1]; 65-nt transcript, less than coligo 122, folded or branched DNA, variant of coligo 122): active

Sequence: TTGCCTAGCAGTAGCTATTTAGTGTGATAATGGCGTTTGATAGTTTAGACACAAACACCATTGTCACACTCCACAGCTCTGCTAAGGAA [coligo 122]
- activity on this sequence [3]: active

Sequence: TTGCCTAGCAGTAGCTATTTAGTGTGATAATGGCGTTTGATAGTTTAGACACAAACACCATTGTCACACTCCACAGCTCTGCTAAGGAA [linear 122]
- activity on this sequence ([1]; 5' phosphate, no transcript from linear form, linear degraded in WCE, single-stranded DNA, variant of coligo 122): not active

Sequence: TTTCTTTACATTTCTTTCTTTTCCGATCCTTTTCGGAT [coligo Pyr-rich]
- activity on this sequence [1, 4]: not active
